Values of other authors, collected in US20120128764A1, “CONTROLLED-RELEASE COMPOSITIONS COMPRISING A PROTON PUMP INHIBITOR” (Aptalis Pharmatech, Inc., priority 2009, published 2012).
At least one read-out could not be matched to a standard name with certainty.

Details: with food

Compound: COc1ccnc(C[S+]([O-])c2nc3ccc(OC(F)F)cc3[nH]2)c1OC (stereo not shown) [Pantoprazole, 5-(difluoromethoxy)-2-[(3,4-dimethoxypyridin-2-yl)methylsulfinyl]-3H-benzoimidazole]
- effect of food on absorption, Cmax and AUC: delays absorption without altering Cmax and AUC
